Experimental data taken from patent publication US20250177526A1.
Results are given in words; binding and its absence hold for the method and conditions named. Some binding calls cover weakened binding; strength is not graded here.

Target: T1, fluorescently labelled CD276 antigen (UniProt Q5ZPR3)
T1 sequence (fluorescently labelled (fluorophore and site not stated), looked up): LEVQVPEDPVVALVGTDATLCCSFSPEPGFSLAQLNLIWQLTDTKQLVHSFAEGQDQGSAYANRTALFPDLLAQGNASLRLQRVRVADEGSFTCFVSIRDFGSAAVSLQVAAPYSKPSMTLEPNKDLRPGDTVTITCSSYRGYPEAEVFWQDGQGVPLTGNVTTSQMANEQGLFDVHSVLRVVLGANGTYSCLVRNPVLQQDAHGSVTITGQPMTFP
Assay: flow cytometry; labelled soluble CD276 antigen on CHO cells expressing CARs from the hSync CARPool vector

B1: CD276 CAR (protein)
chain: EIVMTQSPATLSVSPGERVTLSCRASQSISDYLYWYQQKSHESPRLLIKYASQSISGIPARFSGSGSGSEFTLTINSVEPEDVGVYYCQNGHSFPLTFGQGTKLELKRSGGGGSGGGGSGGGGSGGGGQVQLVQSGAEVVKPGASVKLSCKTSGYTFTNYDINWVRQRPGQGLEWIGWIFPGDDSTQYNEKFKGKATLTTDTSTSTAYMELSSLRSEDTAVYFCARQTTGTWFAYWGQGTLVTVSSAAAIEVMYPPPYLDNEKSNGTIIHVKGKHLCPSPLFPGPSKPFWVLVVVGGVLACYSLLVTVAFIIFWVRSKRSRLLHSDYMNMTPRRPGPTRKHYQPYAPPRDFAAYRSRVKFSRSADAPAYQQGQNQLYNELNLGRREEYDVLDKRRGRDPEMGGKPRRKNPQEGLYNELQKDKMAEAYSEIGMKGERRRGKGHDGLYQGLSTATKDTYDALHMQALPPRVSGWRLFKKIS
For B1, the binding was “binds”.
